Changes are numbered by the printed parent chain. Names and notes keep the numbering of the source. No constants are given. Whether binding was seen depends on the method and setting. Some binding calls cover weakened binding; strength is not graded here. Where a sequence is shown, tags or fusion partners need not be part of it.

Assay [1] deals with T1, eIF4E-1, GAL4 DNA-binding domain fusion (Drosophila melanogaster) (UniProt P48598).
T1 sequence: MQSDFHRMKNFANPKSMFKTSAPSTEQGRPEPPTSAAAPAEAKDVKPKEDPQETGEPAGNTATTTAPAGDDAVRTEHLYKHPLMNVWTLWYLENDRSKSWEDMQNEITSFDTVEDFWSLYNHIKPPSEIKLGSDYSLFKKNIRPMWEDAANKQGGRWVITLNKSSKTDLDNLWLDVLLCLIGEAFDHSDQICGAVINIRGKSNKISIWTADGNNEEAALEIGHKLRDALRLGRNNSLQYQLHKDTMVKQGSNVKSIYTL
The assay can be described thus: two-hybrid.

Assay [2] deals with T2, eIF4E-1 W117A, GAL4 DNA-binding domain fusion (Drosophila melanogaster) (UniProt P48598).
T2 sequence: T1 sequence with W117A
The experiment in a line: two-hybrid.

B1: Me31B 366-459 (D2 domain fragment), GAL4 activation domain fusion (domain or fragment, UniProt P23128 366-459)
chain: VVINFDFPRMAETYLHRIGRSGRFGHLGIAINLITYEDRFDLHRIEKELGTEIKPIPKVIDPALYVANVGASVGDTCNNSDLNNSANEEGNVSK
As to B1, in assay [1], the binding entry is listed as “binds”.

B2: Maternal expression at 31B (Me31B), GAL4 activation domain fusion (protein, UniProt P23128 1-459)
chain: MMTEKLNSGHTNLTSKGIINDLQIAGNTSDDMGWKSKLKLPPKDNRFKTTDVTDTRGNEFEEFCLKRELLMGIFEKGWERPSPIQEAAIPIALSGKDVLARAKNGTGKTGAYCIPVLEQIDPTKDYIQALVMVPTRELALQTSQICIELAKHLDIRVMVTTGGTILKDDILRIYQKVQLIIATPGRILDLMDKKVADMSHCRILVLDEADKLLSLDFQGMLDHVILKLPKDPQILLFSATFPLTVKNFMEKHLREPYEINLMEELTLKGVTQYYAFVQERQKVHCLNTLFSKLQINQSIIFCNSTQRVELLAKKITELGYCCYYIHAKMAQAHRNRVFHDFRQGLCRNLVCSDLFTRGIDVQAVNVVINFDFPRMAETYLHRIGRSGRFGHLGIAINLITYEDRFDLHRIEKELGTEIKPIPKVIDPALYVANVGASVGDTCNNSDLNNSANEEGNVSK
Regarding B2, the results for the binding result in assay [2] and in assay [1] were “no binding” and “binds”, respectively.

B3: Me31B Y401A, GAL4 activation domain fusion (protein, UniProt P23128 1-459)
chain: B2 chain with Y401A
Turning to B3, the binding result in assay [1] is “no binding”.

Values taken from article doi:10.1101/2021.03.23.436655.
